{
  "source": "patent US20260232681A1",
  "about": "“CRYSTALLINE FORMS OF N-[4-[4-(4-MORPHOLINYL)-7H-PYRROLO[2,3-D]PYRIMIDIN-6- YL]PHENYL]-4-[[3(R)-[(L-OXO-2-PROPEN-L-YL)AMINO]-L-PIPERIDINYL]METHYL]-2-PYRIDINECARBOXAMIDE AS A COVALENT INHIBITOR OF MENIN-MLL INTERACTION” (BIOMEA FUSION, INC., priority 2023, published 2026)",
  "key": {"[1]": {"system": "Zucker Diabetic Fatty (ZDF) rats", "experiment": "Glycemic control and HbA1c in ZDF rats, 28-day dosing plus 28-day washout (Examples 104, 106)", "assay_type": "in vivo", "conditions": "Day 29", "description": "Rats were treated daily with Compound 10, liraglutide, or vehicle for twnety-eight days and monitored for an additional twenty-eight days post-treatment.\nZucker Diabetic Fatty (ZDF) rats were dosed daily with Compound 10, liraglutide, or vehicle for twenty-eight days (n=10 per group) and monitored for an additional twenty-eight days post last dose. Fasting blood glucose, insulin, C-peptide levels, HbA1c, oral glucose tolerance test (OGTT), and body weight were monitored during and post-treatment.\nZDF Rat Model—five treatment groups 1. Vehicle; 2. Compound 10 at 40 mg/kg; 3. Compound 10 at 85 mg/kg; 4. Compound 10 at 170 mg/kg; and 5. Liraglutide at 0.2 mg/kg; n=10 per group. Group 2 dose (40 mg/kg) was increased to 200 mg/kg on Day 17 for rest of the dosing phase. Daily dosing zero to twenty-eight days days QD→drug wash out twenty-eight to fifty-six days. Rats were monitored for the following parameters through dosing and wash out phases—body weight, fasting blood sugar, blood insulin, C-peptide, OGTT, and HbA1C."}, "[2]": {"system": "streptozotocin (STZ) induced type II diabetes in Wistar Han rats", "experiment": "Glycemic control in streptozotocin-induced diabetic rats (Examples 103, 105)", "assay_type": "in vivo, rat", "conditions": "Day 15, 30 mg/kg", "description": "The present example provides the ability of Compound 10 to restore glycemic control to streptozotocin (STZ) induced type II diabetes in Wistar Han rats. Fahmy et al., 2017, World J. Pharm. Med. Res. 3(3):37-39.\nControl and test compounds were stored at 4° C. and prepared weekly as needed. The vehicle for positive control pioglitazone was 0.25% carboxymethylcellulose and 1% Tween® 80 in reverse osmosis deionized water. The vehicle for Compound 10 was 10% DMSO, 10% Solutol HS 15, and 80% (10% hydroxypropyl-β-cyclodextrin in 50 mM citrate buffer at pH 3.0). The vehicle for streptozotocin pretreatment was 0.1 M sodium citrate pH 4.5.\nOn Day −3, twenty-four Wistar Han rats (plus eight spare Wistar Han rats) were measured for body weight and non-fasting glucose. […]\nOn Days −7 to −1 and on Days 1, 8, and 14 non-fasting blood glucose was measured. […] The animals were fasted for five hours and a blood glucose measurement was determined. […] Blood glucose was determined via venipuncture. […] On Day 17, 4-hour fasting glucose was measured. […] On Day 17, terminal blood collection was obtained at about 8 mL per animal and measured for blood glucose.\nZDF rats were treated daily with Compound 10, vehicle, or pioglitazone for sixteen days and monitored for an additional two weeks post-treatment until Day 29. […]"}},
  "note": "At least one structure is not confirmed: it was looked up by name or label, or the drawing left a doubt.",
  "data": [
    {"smiles": "CCCCCCCCCCCCCCCC(=O)N[C@@H](CCC(=O)NCCCC[C@H](NC(=O)[C@H](C)NC(=O)[C@H](C)NC(=O)[C@H](CCC(N)=O)NC(=O)CNC(=O)[C@H](CCC(=O)O)NC(=O)[C@H](CC(C)C)NC(=O)[C@H](Cc1ccc(O)cc1)NC(=O)[C@H](CO)NC(=O)[C@H](CO)NC(=O)[C@@H](NC(=O)[C@H](CC(=O)O)NC(=O)[C@H](CO)NC(=O)[C@@H](NC(=O)[C@H](Cc1ccccc1)NC(=O)[C@@H](NC(=O)CNC(=O)[C@H](CCC(=O)O)NC(=O)[C@H](C)NC(=O)[C@@H](N)Cc1cnc[nH]1)[C@@H](C)O)[C@@H](C)O)C(C)C)C(=O)N[C@@H](CCC(=O)O)C(=O)N[C@@H](Cc1ccccc1)C(=O)N[C@H](C(=O)N[C@@H](C)C(=O)N[C@@H](Cc1c[nH]c2ccccc12)C(=O)N[C@@H](CC(C)C)C(=O)N[C@H](C(=O)N[C@@H](CCCNC(=N)N)C(=O)NCC(=O)N[C@@H](CCCNC(=N)N)C(=O)NCC(=O)O)C(C)C)[C@@H](C)CC)C(=O)O", "note": "[liraglutide, reference compound]", "values": [
      {"measurement": "absolute reduction in HbA1C versus vehicle", "setting": "[1]", "value": 1.7, "unit": "%"}
    ]},
    {"smiles": "CCc1ccc(CCOc2ccc(CC3SC(=O)NC3=O)cc2)nc1", "note": "(centres unmarked) [pioglitazone, reference compound]", "values": [
      {"measurement": "blood glucose levels by OGTT", "setting": "[2]", "value": "not and no change"}
    ]}
  ]
}
